Data published in publication PMC7397856.
These are yes or no findings as the source states them, for the method shown. In cells and extracts the contact can be indirect. These calls come from enrichment with a bait or labelling near it, and not all partners need be listed.

Protein sequences, listed by entry. Tags and fused reporters are not part of them. Lines headed by an entry give the natural chain unless they say otherwise; changes in a name come on top.
UniProt Q9NZ71: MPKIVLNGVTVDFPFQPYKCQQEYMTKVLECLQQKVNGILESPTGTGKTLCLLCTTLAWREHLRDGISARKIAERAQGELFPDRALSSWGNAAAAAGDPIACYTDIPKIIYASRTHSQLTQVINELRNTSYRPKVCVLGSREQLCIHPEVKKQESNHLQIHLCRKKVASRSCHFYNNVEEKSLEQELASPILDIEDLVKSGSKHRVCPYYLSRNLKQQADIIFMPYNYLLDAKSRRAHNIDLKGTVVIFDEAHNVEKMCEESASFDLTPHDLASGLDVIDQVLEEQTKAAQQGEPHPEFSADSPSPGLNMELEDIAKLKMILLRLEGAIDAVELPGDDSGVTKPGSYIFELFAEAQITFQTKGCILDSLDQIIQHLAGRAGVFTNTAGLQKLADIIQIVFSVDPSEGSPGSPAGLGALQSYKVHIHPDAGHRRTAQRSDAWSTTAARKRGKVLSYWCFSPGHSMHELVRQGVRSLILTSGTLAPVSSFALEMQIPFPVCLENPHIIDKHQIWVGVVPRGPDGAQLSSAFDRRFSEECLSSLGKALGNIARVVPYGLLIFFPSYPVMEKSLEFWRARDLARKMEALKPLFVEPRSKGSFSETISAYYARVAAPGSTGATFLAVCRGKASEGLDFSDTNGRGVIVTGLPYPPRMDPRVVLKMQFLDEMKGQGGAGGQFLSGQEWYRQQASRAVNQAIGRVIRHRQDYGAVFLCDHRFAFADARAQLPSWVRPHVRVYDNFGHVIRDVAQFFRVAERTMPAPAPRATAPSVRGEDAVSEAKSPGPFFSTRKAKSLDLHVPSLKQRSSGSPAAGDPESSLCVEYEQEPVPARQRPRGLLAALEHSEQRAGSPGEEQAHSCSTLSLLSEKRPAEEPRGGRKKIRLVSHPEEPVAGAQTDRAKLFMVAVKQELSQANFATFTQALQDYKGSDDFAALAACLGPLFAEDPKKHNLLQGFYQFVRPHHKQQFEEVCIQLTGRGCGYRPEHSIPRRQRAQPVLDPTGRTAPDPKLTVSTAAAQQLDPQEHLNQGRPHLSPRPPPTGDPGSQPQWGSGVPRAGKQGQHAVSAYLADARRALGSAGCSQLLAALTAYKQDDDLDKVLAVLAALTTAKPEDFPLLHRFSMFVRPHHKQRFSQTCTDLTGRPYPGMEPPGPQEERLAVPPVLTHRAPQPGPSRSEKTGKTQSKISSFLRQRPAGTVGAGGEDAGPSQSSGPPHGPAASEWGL

Target: Flag-RTEL1 (full-length) (human) (UniProt Q9NZ71)
Assay: affinity purification with mass spectrometry; Flag-RTEL1 expressing HeLa cells; whole cell lysates treated with a cocktail of DNases and RNases; Flag immunopurified, eluted with Flag peptides, resolved by PAGE, silver-stained bands cut and analysed by LC-MS; control Flag-CHFR

B1: endogenous Poldip3 (protein, UniProt Q9BY77 1-421)
chain: MADISLDELIRKRGAAAKGRLNARPGVGGVRSRVGIQQGLLSQSTRTATFQQRFDARQKIGLSDARLKLGVKDAREKLLQKDARFRIKGKVQDAREMLNSRKQQTTVPQKPRQVADAREKISLKRSSPAAFINPPIGTVTPALKLTKTIQVPQQKAMAPLHPHPAGMRINVVNNHQAKQNLYDLDEDDDGIASVPTKQMKFAASGGFLHHMAGLSSSKLSMSKALPLTKVVQNDAYTAPALPSSIRTKALTNMSRTLVNKEEPPKELPAAEPVLSPLEGTKMTVNNLHPRVTEEDIVELFCVCGALKRARLVHPGVAEVVFVKKDDAITAYKKYNNRCLDGQPMKCNLHMNGNVITSDQPILLRLSDSPSMKKESELPRRVNSASSSNPPAEVDPDTILKALFKSSGASVTTQPTEFKIKL
For B1, the binding was “binds”.
